# The other results are listed elsewhere or left out.
# How the values were obtained:
# Assay in all cases: glycan array binding signal (z-score within array); higher = stronger binding
# Conditions in all cases: glycan notation: IUPAC condensed, linker removed
# Gal6S(b1-4)Glc = molecular target: Gal6S(b1-4)Glc
# Summary of the method: (§1)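 Glycan array data were curated from 3228 arrays in the Consortium for Functional Glycomics database and kept only where the protein sequence was available. Glycan names were converted to IUPAC-condensed notation, and columns mapping to the same glycan were averaged. The binding signal is a within-array Z-score, averaged across arrays of the same protein sequence at different concentrations or buffers and across linkers. Negative Z-scores can be read as non-binding.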
# Gal6S(b1-4)Glc6S = molecular target: Gal6S(b1-4)Glc6S
# Summary of the method: as §1
# Gal6S(b1-4)GlcNAc = molecular target: Gal6S(b1-4)GlcNAc
# Summary of the method: as §1
# Gal6S(b1-4)GlcNAc6S = molecular target: Gal6S(b1-4)GlcNAc6S
# Summary of the method: as §1
# GalNAc(a1-3)Gal = molecular target: GalNAc(a1-3)Gal
# Summary of the method: as §1
# GalNAc(a1-3)GalNAc = molecular target: GalNAc(a1-3)GalNAc
# Summary of the method: as §1
# [1] = molecular target: GalNAc(a1-3)GalNAc(b1-3)Gal(a1-4)Gal(b1-4)Glc
# Summary of the method: as §1
# [2] = molecular target: GalNAc(a1-3)GalNAc(b1-3)Gal(a1-4)Gal(b1-4)GlcNAc
# Summary of the method: as §1
# GalNAc(b1-3)Gal = molecular target: GalNAc(b1-3)Gal
# Summary of the method: as §1
# [3] = molecular target: GalNAc(b1-3)Gal(a1-4)Gal(b1-4)GlcNAc
# Summary of the method: as §1
# [4] = molecular target: GalNAc(b1-3)Gal(a1-4)Gal(b1-4)GlcNAc(b1-3)Gal(b1-4)Glc
# Summary of the method: as §1
# [5] = molecular target: GalNAc(b1-3)Gal(a1-6)Gal(b1-4)Glc
# Summary of the method: as §1
# GalNAc(b1-3)GalNAc = molecular target: GalNAc(b1-3)GalNAc
# Summary of the method: as §1
# GalNAc(b1-3)GlcNAc = molecular target: GalNAc(b1-3)GlcNAc
# Summary of the method: as §1
# GalNAc(b1-4)Gal(b1-4)Glc = molecular target: GalNAc(b1-4)Gal(b1-4)Glc
# Summary of the method: as §1
# GalNAc(b1-4)GlcNAc = molecular target: GalNAc(b1-4)GlcNAc
# Summary of the method: as §1
# [6] = molecular target: GalNAc(b1-4)GlcNAc(b1-2)Man
# Summary of the method: as §1
# [7] = molecular target: GalNAc(b1-4)GlcNAc(b1-2)Man(a1-3)[GalNAc(b1-4)GlcNAc(b1-2)Man(a1-6)]Man(b1-4)GlcNAc(b1-4)GlcNAc
# Summary of the method: as §1
# [8] = molecular target: GalNAc(b1-4)GlcNAc(b1-3)GalNAc(b1-4)GlcNAc
# Summary of the method: as §1
# GalNAc(b1-4)GlcNAc6S = molecular target: GalNAc(b1-4)GlcNAc6S
# Summary of the method: as §1
# GalNAc(b1-6)GalNAc = molecular target: GalNAc(b1-6)GalNAc
# Summary of the method: as §1
# GalNAc3S(b1-4)GlcNAc = molecular target: GalNAc3S(b1-4)GlcNAc
# Summary of the method: as §1
# GalNAc3S(b1-4)GlcNAc3S = molecular target: GalNAc3S(b1-4)GlcNAc3S
# Summary of the method: as §1
# [9] = molecular target: GalNAc3S(b1-4)[Fuc(a1-3)]GlcNAc
# Summary of the method: as §1
# GalNAc4S6S(b1-4)GlcNAc = molecular target: GalNAc4S6S(b1-4)GlcNAc
# Summary of the method: as §1
# GalNAc6S(b1-4)GlcNAc = molecular target: GalNAc6S(b1-4)GlcNAc
# Summary of the method: as §1
# Glc(a1-4)Glc = molecular target: Glc(a1-4)Glc
# Summary of the method: as §1
# [10] = molecular target: Glc(a1-4)Glc(a1-4)Glc(a1-4)Glc
# Summary of the method: as §1
# Glc(a1-6)Glc(a1-6)Glc = molecular target: Glc(a1-6)Glc(a1-6)Glc
# Summary of the method: as §1
# [11] = molecular target: Glc(a1-6)Glc(a1-6)Glc(a1-6)Glc
# Summary of the method: as §1
# Glc(b1-4)Glc = molecular target: Glc(b1-4)Glc
# Summary of the method: as §1
# Glc(b1-6)Glc = molecular target: Glc(b1-6)Glc
# Summary of the method: as §1
# GlcA(b1-3)Gal = molecular target: GlcA(b1-3)Gal
# Summary of the method: as §1
# GlcA(b1-3)GlcNAc = molecular target: GlcA(b1-3)GlcNAc
# Summary of the method: as §1
# GlcA(b1-6)Gal = molecular target: GlcA(b1-6)Gal
# Summary of the method: as §1
# [12] = molecular target: GlcA3S(b1-3)Gal(b1-4)GlcNAc(b1-2)Man
# Summary of the method: as §1
# [13] = molecular target: GlcA3S(b1-3)Gal(b1-4)GlcNAc(b1-3)Gal(b1-4)Glc
# Summary of the method: as §1
# [14] = molecular target: GlcNAc(a1-3)Gal(b1-4)GlcNAc
# Summary of the method: as §1
# [15] = molecular target: GlcNAc(a1-4)Gal(b1-3)GlcNAc
# Summary of the method: as §1
# [16] = molecular target: GlcNAc(a1-4)Gal(b1-4)GalNAc
# Summary of the method: as §1
# [17] = molecular target: GlcNAc(a1-4)Gal(b1-4)GlcNAc
# Summary of the method: as §1
# [18] = molecular target: GlcNAc(a1-4)Gal(b1-4)GlcNAc(b1-3)Gal(b1-4)Glc
# Summary of the method: as §1
# [19] = molecular target: GlcNAc(a1-4)Gal(b1-4)GlcNAc(b1-3)Gal(b1-4)GlcNAc
# Summary of the method: as §1
# [20] = molecular target: GlcNAc(a1-4)Gal(b1-4)GlcNAc(b1-3)Gal(b1-4)GlcNAc(b1-3)Gal(b1-4)GlcNAc
# Summary of the method: as §1
# [21] = molecular target: GlcNAc(a1-4)Gal(b1-4)GlcNAc(b1-3)Gal(b1-4)[Fuc(a1-3)]GlcNAc(b1-3)Gal(b1-4)[Fuc(a1-3)]GlcNAc
# Summary of the method: as §1
binder,measurement,setting,value
"pTFF2 (Sus scrofa), P01359 (protein) KPAACRCSRQDPKNRVNCGFPGITSDQCFTSGCCFDSQVPGVPWCFKPLPAQESEECVMEVSARKNCGYPGISPEDCAARNCCFSDTIPEVPWCFFPMSVEACHY",glycan array binding signal (z-score),Gal6S(b1-4)Glc,0.077
same,glycan array binding signal (z-score),Gal6S(b1-4)Glc6S,0.749
same,glycan array binding signal (z-score),Gal6S(b1-4)GlcNAc,-1.92
same,glycan array binding signal (z-score),Gal6S(b1-4)GlcNAc6S,0.285
same,glycan array binding signal (z-score),GalNAc(a1-3)Gal,1.15
same,glycan array binding signal (z-score),GalNAc(a1-3)GalNAc,-0.358
same,glycan array binding signal (z-score),[1],-0.118
same,glycan array binding signal (z-score),[2],-0.816
same,glycan array binding signal (z-score),GalNAc(b1-3)Gal,0.164
same,glycan array binding signal (z-score),[3],-0.4
same,glycan array binding signal (z-score),[4],-0.07
same,glycan array binding signal (z-score),[5],-1
same,glycan array binding signal (z-score),GalNAc(b1-3)GalNAc,0.308
same,glycan array binding signal (z-score),GalNAc(b1-3)GlcNAc,0.736
same,glycan array binding signal (z-score),GalNAc(b1-4)Gal(b1-4)Glc,4.38
same,glycan array binding signal (z-score),GalNAc(b1-4)GlcNAc,2.01
same,glycan array binding signal (z-score),[6],-1.25
same,glycan array binding signal (z-score),[7],0.559
same,glycan array binding signal (z-score),[8],-0.11
same,glycan array binding signal (z-score),GalNAc(b1-4)GlcNAc6S,1.59
same,glycan array binding signal (z-score),GalNAc(b1-6)GalNAc,-0.569
same,glycan array binding signal (z-score),GalNAc3S(b1-4)GlcNAc,2.64
same,glycan array binding signal (z-score),GalNAc3S(b1-4)GlcNAc3S,0.305
same,glycan array binding signal (z-score),[9],0.144
same,glycan array binding signal (z-score),GalNAc4S6S(b1-4)GlcNAc,-1.06
same,glycan array binding signal (z-score),GalNAc6S(b1-4)GlcNAc,-0.339
same,glycan array binding signal (z-score),Glc(a1-4)Glc,-0.022
same,glycan array binding signal (z-score),[10],0.391
same,glycan array binding signal (z-score),Glc(a1-6)Glc(a1-6)Glc,-1.06
same,glycan array binding signal (z-score),[11],-1.51
same,glycan array binding signal (z-score),Glc(b1-4)Glc,0.317
same,glycan array binding signal (z-score),Glc(b1-6)Glc,-1.34
same,glycan array binding signal (z-score),GlcA(b1-3)Gal,-0.315
same,glycan array binding signal (z-score),GlcA(b1-3)GlcNAc,1.53
same,glycan array binding signal (z-score),GlcA(b1-6)Gal,1.46
same,glycan array binding signal (z-score),[12],1.43
same,glycan array binding signal (z-score),[13],-1.9
same,glycan array binding signal (z-score),[14],-0.493
same,glycan array binding signal (z-score),[15],0.785
same,glycan array binding signal (z-score),[16],1.8
same,glycan array binding signal (z-score),[17],0.482
same,glycan array binding signal (z-score),[18],-1.14
same,glycan array binding signal (z-score),[19],-0.003
same,glycan array binding signal (z-score),[20],-0.612
same,glycan array binding signal (z-score),[21],1.22

# In a second layout: results already given
binder | measurement | setting | value
pTFF2 (Sus scrofa), P01359 (protein) KPAACRCSRQDPKNRVNCGFPGITSDQCFTSGCCFDSQVPGVPWCFKPLPAQESEECVMEVSARKNCGYPGISPEDCAARNCCFSDTIPEVPWCFFPMSVEACHY | glycan array binding signal (z-score) | Glc(a1-6)Glc(a1-6)Glc | -1.06
same | glycan array binding signal (z-score) | [11] | -1.51

# — the supplement of paper PMC8728848
